Drawing on PMC7819943, “Rice protein-binding microarrays: a tool to detect cis-acting elements near promoter regions in rice”, this text covers binding signal for 42 sequences.

This is one part of the list.

The target of the assay is T1, OsSMF1 (Oryza sativa, UniProt Q6ZLB0 1-436).
T1 sequence: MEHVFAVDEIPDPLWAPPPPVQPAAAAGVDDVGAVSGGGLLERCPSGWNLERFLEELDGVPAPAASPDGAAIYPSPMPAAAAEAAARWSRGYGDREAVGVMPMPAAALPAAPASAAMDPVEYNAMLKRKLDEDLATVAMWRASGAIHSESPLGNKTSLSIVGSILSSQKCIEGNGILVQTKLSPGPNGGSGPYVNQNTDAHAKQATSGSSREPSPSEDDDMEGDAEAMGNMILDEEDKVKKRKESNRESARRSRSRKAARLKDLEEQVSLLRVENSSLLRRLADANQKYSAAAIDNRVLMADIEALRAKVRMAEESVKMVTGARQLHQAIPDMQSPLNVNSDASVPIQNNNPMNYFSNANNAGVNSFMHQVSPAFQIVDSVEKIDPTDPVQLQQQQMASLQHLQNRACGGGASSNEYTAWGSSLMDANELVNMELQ
In words: protein-binding microarray (RPBM); PBS, 2% BSA, 51.3 ng/ul salmon testes DNA, 50 uM zinc acetate, 200 nM TF, 25 C, 1 h; high values mean tight binding. The conditions noted are these: protein: recombinant; tags: N-terminal polyhistidine and DsRed monomer fusion (pET32a); chain copies: 2; label: CyDye5-dUTP incorporated in the synthesized complementary strand; 3' TTTTT single-stranded linker to array surface; dsDNA, one strand shown. Summed up:
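Per-feature fluorescence intensity (arbitrary units), read on an Axon 4000B scanner, is the binding signal. Transcription factors carrying an N-terminal polyhistidine tag and DsRed fusion were expressed in E. coli BL21-CodonPlus and purified on Ni–NTA. A custom Agilent array, made double-stranded by primer extension with Cy5-dUTP and blocked with 2% BSA, was incubated with 200 nM protein in PBS, 2% BSA, salmon testes DNA and 50 µM zinc acetate at 25 °C for 1 h and then washed.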
Regarding “TAACACATGTAAAACAAACAGGTAATAACTCAAGTAAGTACGGAGTCACCTAGTGCAG”, the binding signal was 3150 fluorescence intensity (a.u.).

Turning to “ATGGTGATCGAATGGTGTGACGGGGTTATGTATTTAGATACGGAGTCACCTAGTGCAG”, the binding signal was 4220 fluorescence intensity (a.u.).

As for “CGCCGCCTGGAGGATGACGTAGGTGTTCGTCTGCGCGAACCGGAGTCACCTAGTGCAG”, the binding signal is 4730 fluorescence intensity (a.u.).

Take “TACAATGCCAGCATGTGTTTCATAGTACTGTGTCCTGTCACGGAGTCACCTAGTGCAG”: the binding signal was 4830 fluorescence intensity (a.u.).

“TGGAGGACACTGATTCGTTTACGCATATAAAGTTTATACGCGGAGTCACCTAGTGCAG”: the binding signal was 3150 fluorescence intensity (a.u.).

On to “CTCCTTACCCCTCCCCTTGTGGTGACGTCGACGGGACGGACGGAGTCACCTAGTGCAG”, for which the binding signal is 9620 fluorescence intensity (a.u.).

With “GAGGAGCCCTGACCTGCATGGTGAAGTTGACGTGGTCCTGCGGAGTCACCTAGTGCAG”, the binding signal was 6590 fluorescence intensity (a.u.).

In the case of “TTCATGATTTTGCCACGATTACTCGGTGTCACCGTGTCACCGGAGTCACCTAGTGCAG”, the binding signal is 6220 fluorescence intensity (a.u.).

As for “GGGGTTAGTCGCCGGAGGTGTGGCGTGTCGACACGTACGCCGGAGTCACCTAGTGCAG”, the binding signal is 8720 fluorescence intensity (a.u.).

For “AAATTCACGAAATCAACATACCACGTCATAGGGTTAACAACGGAGTCACCTAGTGCAG”, the binding signal is 13500 fluorescence intensity (a.u.).

“TGATTAATTCTGGTAGTTGTAGATGCTGATATACACACACCGGAGTCACCTAGTGCAG”: the binding signal was 3140 fluorescence intensity (a.u.).

With “ACCATCCGAATTCCACGTCTGCCGGTGTGGTGGCGTTAAACGGAGTCACCTAGTGCAG”, the binding signal was 4230 fluorescence intensity (a.u.).

As to “AATACTCCCTCCATTTCGAAATGTTTGACACCGTTAACTTCGGAGTCACCTAGTGCAG”, the binding signal was 3260 fluorescence intensity (a.u.).

For “TCCGGGATCAAATTGTCACGTAAACGCCACGTGGGATGACCGGAGTCACCTAGTGCAG”, the binding signal is 18400 fluorescence intensity (a.u.).

Regarding “CGTGGGTCCACGCTGACTTAGCCTCCACGTAGGACAATACCGGAGTCACCTAGTGCAG”, the binding signal was 7240 fluorescence intensity (a.u.).

For the sequence “TTATCGTATGTGTGATATGAGATGGACACACGCGTGGCGGCGGAGTCACCTAGTGCAG”, the binding signal was 3980 fluorescence intensity (a.u.).

In the case of “GAGCTAGGACCCTCCGTGGTGGGGTGGCAGATTCACCACCCGGAGTCACCTAGTGCAG”, the binding signal is 3190 fluorescence intensity (a.u.).

For “CCCGTCTGCTACTCTGCCGTGTTGGCCGCCGCGCCCACCTCGGAGTCACCTAGTGCAG”, the binding signal is 3230 fluorescence intensity (a.u.).

In the case of “AAAATTGTTGCGTGACTGAATGGAGATTTCAGATTTCTGCCGGAGTCACCTAGTGCAG”, the binding signal is 5430 fluorescence intensity (a.u.).

For “CCCAGCATGACACGTGTCTAACTCGACCAGTCTCCTACTCCGGAGTCACCTAGTGCAG”, the binding signal was 13500 fluorescence intensity (a.u.).

In the case of “TCACGTTATTCGTTTGACGTGGCAAAACAATACTGTCGGTCGGAGTCACCTAGTGCAG”, the binding signal is 10400 fluorescence intensity (a.u.).

Take “GAATCTCCGTCCTCCACCTTCGCCGCTCGCCCCTCTCTCTCGGAGTCACCTAGTGCAG”: the binding signal was 3520 fluorescence intensity (a.u.).

“CGTGGATGGAGAAGAGGCGGCCGCCGCGGCGGCTGCTTGGCGGAGTCACCTAGTGCAG”: the binding signal was 4800 fluorescence intensity (a.u.).

As for “ATATATCCCGTGCATACCCATATACGTGGCACCATCTGACCGGAGTCACCTAGTGCAG”, the binding signal is 12600 fluorescence intensity (a.u.).

Consider “AAATTTAGGGGTTGTTTGGTTGGTGACCACATGTTGTCACCGGAGTCACCTAGTGCAG”, for which the binding signal is 5500 fluorescence intensity (a.u.).

As to “TCTATAAGCTCTCTATAAGAGATCCATGTCAGCATATTTTCGGAGTCACCTAGTGCAG”, the binding signal was 8150 fluorescence intensity (a.u.).

Consider “TCGCGCGCACGCAAACGCAAGCCATTACGTAACCACGGCTCGGAGTCACCTAGTGCAG”, for which the binding signal was 3980 fluorescence intensity (a.u.).

For the sequence “CGGCATCGGCCGCGCCATGGCGTTCCGCCTCGCCGCCTCGCGGAGTCACCTAGTGCAG”, the binding signal is 3290 fluorescence intensity (a.u.).

With “GTTGTACTTTTAAACTTGCTCTATGACATCACGATCAGAGCGGAGTCACCTAGTGCAG”, the binding signal was 5160 fluorescence intensity (a.u.).

With “GAGGAAGAACCTTACGCTCAAACGAAACGGAACCAGTAGGCGGAGTCACCTAGTGCAG”, the binding signal was 55100 fluorescence intensity (a.u.).

Take “TTGCCTCTCCTCTACACAACACCGCGACTCTATCGGTATACGGAGTCACCTAGTGCAG”: the binding signal is 3170 fluorescence intensity (a.u.).

Regarding “ACTTGATTTGAACGTTTTGCATATGTACGTAGTACGTGTACGGAGTCACCTAGTGCAG”, the binding signal was 3200 fluorescence intensity (a.u.).

Take “CAAAAGATAGGGATTGTCACGGGGAGACACCCACATAAAACGGAGTCACCTAGTGCAG”: the binding signal was 30500 fluorescence intensity (a.u.).

Regarding “TGGTTTTGAAGGCGGTTTTGGTTGACGTGGCGCCTACATGCGGAGTCACCTAGTGCAG”, the binding signal is 23700 fluorescence intensity (a.u.).

For “ACGGAGGGAGGGGCTGTTCAGATTGATGTCATTTTCAACCCGGAGTCACCTAGTGCAG”, the binding signal was 3880 fluorescence intensity (a.u.).

“TTCTGATGACTAGTATGAGACGTGAATGCCAACGCTCTCACGGAGTCACCTAGTGCAG”: the binding signal is 3380 fluorescence intensity (a.u.).

With “CTTGATCTTCTCCCACTCCTTCCAATCTCCTCTCTTTTCTCGGAGTCACCTAGTGCAG”, the binding signal is 3220 fluorescence intensity (a.u.).

Regarding “CTTTTCATCCATCCCAACATCTTGCACATGCATGGAGAGTCGGAGTCACCTAGTGCAG”, the binding signal is 4280 fluorescence intensity (a.u.).

“GAATATATGGACATGTCTGTTAAGCTATCCTAAACGAACGCGGAGTCACCTAGTGCAG”: the binding signal was 3890 fluorescence intensity (a.u.).

As for “GTCGCCACGTCTGGAGGTCATGTTCCCCACTTCGGTGCTGCGGAGTCACCTAGTGCAG”, the binding signal was 5680 fluorescence intensity (a.u.).

For the sequence “CGTGCCCTCCTCTTCCTCCCACTCCTCCTCATCTGCCCTCCGGAGTCACCTAGTGCAG”, the binding signal is 27300 fluorescence intensity (a.u.).

For the sequence “AACAATAACAAGATTAAAATAAACTTCACACGTTGTAATGCGGAGTCACCTAGTGCAG”, the binding signal is 3160 fluorescence intensity (a.u.).
